Results taken from paper PMC8394137.
Results are given in words; binding and its absence hold for the method and conditions named. Binding seen in cells or lysates may run through a third protein. Some entries that bind do so weakly or less than the wild type. Sequences can lack the tags named with a protein.

Sequences of proteins named here, by UniProt entry; tags and fusion partners are left off.
UniProt O43736: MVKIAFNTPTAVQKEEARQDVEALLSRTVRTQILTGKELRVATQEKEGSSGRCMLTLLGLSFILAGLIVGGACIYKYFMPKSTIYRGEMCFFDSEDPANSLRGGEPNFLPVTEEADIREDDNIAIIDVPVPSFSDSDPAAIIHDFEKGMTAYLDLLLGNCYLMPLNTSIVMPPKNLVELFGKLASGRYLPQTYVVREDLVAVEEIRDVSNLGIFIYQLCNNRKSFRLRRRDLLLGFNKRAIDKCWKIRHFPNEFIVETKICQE

Experiments:
[1] = target: myc-tagged ITM2A (integral membrane protein 2A) (UniProt O43736); assay: co-IP; HEK293 co-transfected with two plasmids, lysed 24 h later in 50 mM Tris HCl pH 7.5, 150 mM NaCl, 1% NP-40, 0.05% sodium deoxycholate, 1 mM EDTA; anti-tag antibody (anti-HA or anti-myc) and Dynabeads Protein G at 4 °C; Western blot for the other tag
[2] = target: T1, full-length PTCH1-HA (human) (UniProt Q13635); assay: as above
T1 sequence: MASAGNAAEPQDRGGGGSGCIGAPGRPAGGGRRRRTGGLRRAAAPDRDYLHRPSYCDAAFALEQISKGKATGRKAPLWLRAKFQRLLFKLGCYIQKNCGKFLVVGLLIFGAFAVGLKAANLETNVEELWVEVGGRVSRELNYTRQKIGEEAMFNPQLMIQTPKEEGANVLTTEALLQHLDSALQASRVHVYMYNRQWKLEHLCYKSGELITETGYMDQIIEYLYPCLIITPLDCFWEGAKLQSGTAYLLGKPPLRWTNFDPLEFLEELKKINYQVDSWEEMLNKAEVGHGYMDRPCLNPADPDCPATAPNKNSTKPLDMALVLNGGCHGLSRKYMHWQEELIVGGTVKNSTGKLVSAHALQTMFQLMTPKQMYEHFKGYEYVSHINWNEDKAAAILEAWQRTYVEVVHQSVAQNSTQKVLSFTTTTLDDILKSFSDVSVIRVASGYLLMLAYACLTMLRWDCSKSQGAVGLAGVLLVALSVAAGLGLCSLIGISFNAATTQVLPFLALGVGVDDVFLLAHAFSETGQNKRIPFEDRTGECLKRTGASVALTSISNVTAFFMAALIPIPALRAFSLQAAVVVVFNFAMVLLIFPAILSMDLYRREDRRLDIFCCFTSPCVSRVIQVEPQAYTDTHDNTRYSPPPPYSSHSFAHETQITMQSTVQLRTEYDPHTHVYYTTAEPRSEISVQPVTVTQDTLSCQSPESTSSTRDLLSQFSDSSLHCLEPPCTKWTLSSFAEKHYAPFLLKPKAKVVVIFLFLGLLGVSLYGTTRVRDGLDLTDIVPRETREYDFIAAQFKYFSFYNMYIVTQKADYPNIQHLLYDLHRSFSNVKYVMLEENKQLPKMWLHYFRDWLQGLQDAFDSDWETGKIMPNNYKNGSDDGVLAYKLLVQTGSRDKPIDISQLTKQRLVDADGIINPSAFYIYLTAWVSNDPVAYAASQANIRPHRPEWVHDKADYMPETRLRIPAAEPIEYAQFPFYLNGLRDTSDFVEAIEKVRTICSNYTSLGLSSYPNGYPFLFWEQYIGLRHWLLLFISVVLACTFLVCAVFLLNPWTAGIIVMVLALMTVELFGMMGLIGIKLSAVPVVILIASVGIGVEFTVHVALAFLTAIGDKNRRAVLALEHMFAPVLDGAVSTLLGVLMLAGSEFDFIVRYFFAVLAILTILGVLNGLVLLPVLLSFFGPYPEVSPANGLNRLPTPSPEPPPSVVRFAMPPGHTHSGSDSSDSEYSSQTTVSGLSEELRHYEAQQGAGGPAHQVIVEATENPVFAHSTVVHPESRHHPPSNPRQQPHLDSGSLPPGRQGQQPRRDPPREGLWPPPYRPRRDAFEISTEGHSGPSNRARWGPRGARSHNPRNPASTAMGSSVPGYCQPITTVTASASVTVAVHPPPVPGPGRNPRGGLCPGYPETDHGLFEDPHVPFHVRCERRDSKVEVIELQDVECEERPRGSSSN

Molecule	binding [1]	binding [2]
myc-tagged ITM2A (integral membrane protein 2A) (from UniProt O43736 1-263)	binds	binds
full-length PTCH1-HA (receptor, UniProt Q13635 1-1447) MASAGNAAEPQDRGGGGSGCIGAPGRPAGGGRRRRTGGLRRAAAPDRDYLHRPSYCDAAFALEQISKGKATGRKAPLWLRAKFQRLLFKLGCYIQKNCGKFLVVGLLIFGAFAVGLKAANLETNVEELWVEVGGRVSRELNYTRQKIGEEAMFNPQLMIQTPKEEGANVLTTEALLQHLDSALQASRVHVYMYNRQWKLEHLCYKSGELITETGYMDQIIEYLYPCLIITPLDCFWEGAKLQSGTAYLLGKPPLRWTNFDPLEFLEELKKINYQVDSWEEMLNKAEVGHGYMDRPCLNPADPDCPATAPNKNSTKPLDMALVLNGGCHGLSRKYMHWQEELIVGGTVKNSTGKLVSAHALQTMFQLMTPKQMYEHFKGYEYVSHINWNEDKAAAILEAWQRTYVEVVHQSVAQNSTQKVLSFTTTTLDDILKSFSDVSVIRVASGYLLMLAYACLTMLRWDCSKSQGAVGLAGVLLVALSVAAGLGLCSLIGISFNAATTQVLPFLALGVGVDDVFLLAHAFSETGQNKRIPFEDRTGECLKRTGASVALTSISNVTAFFMAALIPIPALRAFSLQAAVVVVFNFAMVLLIFPAILSMDLYRREDRRLDIFCCFTSPCVSRVIQVEPQAYTDTHDNTRYSPPPPYSSHSFAHETQITMQSTVQLRTEYDPHTHVYYTTAEPRSEISVQPVTVTQDTLSCQSPESTSSTRDLLSQFSDSSLHCLEPPCTKWTLSSFAEKHYAPFLLKPKAKVVVIFLFLGLLGVSLYGTTRVRDGLDLTDIVPRETREYDFIAAQFKYFSFYNMYIVTQKADYPNIQHLLYDLHRSFSNVKYVMLEENKQLPKMWLHYFRDWLQGLQDAFDSDWETGKIMPNNYKNGSDDGVLAYKLLVQTGSRDKPIDISQLTKQRLVDADGIINPSAFYIYLTAWVSNDPVAYAASQANIRPHRPEWVHDKADYMPETRLRIPAAEPIEYAQFPFYLNGLRDTSDFVEAIEKVRTICSNYTSLGLSSYPNGYPFLFWEQYIGLRHWLLLFISVVLACTFLVCAVFLLNPWTAGIIVMVLALMTVELFGMMGLIGIKLSAVPVVILIASVGIGVEFTVHVALAFLTAIGDKNRRAVLALEHMFAPVLDGAVSTLLGVLMLAGSEFDFIVRYFFAVLAILTILGVLNGLVLLPVLLSFFGPYPEVSPANGLNRLPTPSPEPPPSVVRFAMPPGHTHSGSDSSDSEYSSQTTVSGLSEELRHYEAQQGAGGPAHQVIVEATENPVFAHSTVVHPESRHHPPSNPRQQPHLDSGSLPPGRQGQQPRRDPPREGLWPPPYRPRRDAFEISTEGHSGPSNRARWGPRGARSHNPRNPASTAMGSSVPGYCQPITTVTASASVTVAVHPPPVPGPGRNPRGGLCPGYPETDHGLFEDPHVPFHVRCERRDSKVEVIELQDVECEERPRGSSSN	binds	
full-length PTCH1-eGFP (receptor, UniProt Q13635 1-1447) MASAGNAAEPQDRGGGGSGCIGAPGRPAGGGRRRRTGGLRRAAAPDRDYLHRPSYCDAAFALEQISKGKATGRKAPLWLRAKFQRLLFKLGCYIQKNCGKFLVVGLLIFGAFAVGLKAANLETNVEELWVEVGGRVSRELNYTRQKIGEEAMFNPQLMIQTPKEEGANVLTTEALLQHLDSALQASRVHVYMYNRQWKLEHLCYKSGELITETGYMDQIIEYLYPCLIITPLDCFWEGAKLQSGTAYLLGKPPLRWTNFDPLEFLEELKKINYQVDSWEEMLNKAEVGHGYMDRPCLNPADPDCPATAPNKNSTKPLDMALVLNGGCHGLSRKYMHWQEELIVGGTVKNSTGKLVSAHALQTMFQLMTPKQMYEHFKGYEYVSHINWNEDKAAAILEAWQRTYVEVVHQSVAQNSTQKVLSFTTTTLDDILKSFSDVSVIRVASGYLLMLAYACLTMLRWDCSKSQGAVGLAGVLLVALSVAAGLGLCSLIGISFNAATTQVLPFLALGVGVDDVFLLAHAFSETGQNKRIPFEDRTGECLKRTGASVALTSISNVTAFFMAALIPIPALRAFSLQAAVVVVFNFAMVLLIFPAILSMDLYRREDRRLDIFCCFTSPCVSRVIQVEPQAYTDTHDNTRYSPPPPYSSHSFAHETQITMQSTVQLRTEYDPHTHVYYTTAEPRSEISVQPVTVTQDTLSCQSPESTSSTRDLLSQFSDSSLHCLEPPCTKWTLSSFAEKHYAPFLLKPKAKVVVIFLFLGLLGVSLYGTTRVRDGLDLTDIVPRETREYDFIAAQFKYFSFYNMYIVTQKADYPNIQHLLYDLHRSFSNVKYVMLEENKQLPKMWLHYFRDWLQGLQDAFDSDWETGKIMPNNYKNGSDDGVLAYKLLVQTGSRDKPIDISQLTKQRLVDADGIINPSAFYIYLTAWVSNDPVAYAASQANIRPHRPEWVHDKADYMPETRLRIPAAEPIEYAQFPFYLNGLRDTSDFVEAIEKVRTICSNYTSLGLSSYPNGYPFLFWEQYIGLRHWLLLFISVVLACTFLVCAVFLLNPWTAGIIVMVLALMTVELFGMMGLIGIKLSAVPVVILIASVGIGVEFTVHVALAFLTAIGDKNRRAVLALEHMFAPVLDGAVSTLLGVLMLAGSEFDFIVRYFFAVLAILTILGVLNGLVLLPVLLSFFGPYPEVSPANGLNRLPTPSPEPPPSVVRFAMPPGHTHSGSDSSDSEYSSQTTVSGLSEELRHYEAQQGAGGPAHQVIVEATENPVFAHSTVVHPESRHHPPSNPRQQPHLDSGSLPPGRQGQQPRRDPPREGLWPPPYRPRRDAFEISTEGHSGPSNRARWGPRGARSHNPRNPASTAMGSSVPGYCQPITTVTASASVTVAVHPPPVPGPGRNPRGGLCPGYPETDHGLFEDPHVPFHVRCERRDSKVEVIELQDVECEERPRGSSSN	binds	
